Each compound was assayed on HepG-2 and L-O2 cell lines (assay: Therapeutic index, ratio of IC50 for L-O2 to IC50 for HepG-2). Details: IC50 (L-O2)/IC50 (HepG-2).
Type: cell-based, human

In order of rising “TI (Therapeutic Index)” value:
1. CC(=O)OC(C)(C)/C=C/C(=O)[C@](C)(O)C1[C@H](OC(=O)CCC(=O)OCC#CCOc2no[n+]([O-])c2S(=O)(=O)c2ccccc2)C[C@@]2(C)C3CC=C4C(CC(O)C(=O)C4(C)C)[C@]3(C)C(=O)C[C@]12C (stereo partly drawn) [Compound 10m, 4-((4-((4-(((9R,13R,14S,16R)-17-((R,E)-6-Acetoxy-2-hydroxy-6-methyl-3-oxohept-4-en-2-yl)-2-hydroxy-4,4,9,13,14-pentamethyl-3,11-dioxo-2,3,4,7,8,9,10,11,12,13,14,15,16,17-tetradecahydro-1H-cyclopenta[a]phenanthren-16-yl)oxy)-4-oxobutanoyl)oxy)but-2-yn-1-yl)oxy)-3-(phenylsulfonyl)-1,2,5-oxadiazole 2-oxide]  2.18
2. CC(=O)OC(C)(C)/C=C/C(=O)[C@](C)(O)C1[C@H](OC(=O)CCC(=O)OC/C=C/COc2no[n+]([O-])c2S(=O)(=O)c2ccccc2)C[C@@]2(C)C3CC=C4C(CC(O)C(=O)C4(C)C)[C@]3(C)C(=O)C[C@]12C (stereo partly drawn) [Compound 10l, 4-(((E)-4-((4-(((9R,13R,14S,16R)-17-((R,E)-6-Acetoxy-2-hydroxy-6-methyl-3-oxohept-4-en-2-yl)-2-hydroxy-4,4,9,13,14-pentamethyl-3,11-dioxo-2,3,4,7,8,9,10,11,12,13,14,15,16,17-tetradecahydro-1H-cyclopenta[a]phenanthren-16-yl)oxy)-4-oxobutanoyl)oxy)but-2-en-1-yl)oxy)-3-(phenylsulfonyl)-1,2,5-oxadiazole 2-oxide]  2.69
3. CC(=O)OC(C)(C)/C=C/C(=O)[C@](C)(O)C1[C@H](OC(=O)CCC(=O)OCc2ccc(COc3no[n+]([O-])c3S(=O)(=O)c3ccccc3)cc2)C[C@@]2(C)C3CC=C4C(CC(O)C(=O)C4(C)C)[C@]3(C)C(=O)C[C@]12C (stereo partly drawn) [Compound 10o, 4-((4-(((4-(((9R,13R,14S,16R)-17-((R,E)-6-Acetoxy-2-hydroxy-6-methyl-3-oxohept-4-en-2-yl)-2-hydroxy-4,4,9,13,14-pentamethyl-3,11-dioxo-2,3,4,7,8,9,10,11,12,13,14,15,16,17-tetradecahydro-1H-cyclopenta[a]phenanthren-16-yl)oxy)-4-oxobutanoyl)oxy)methyl)benzyl)oxy)-3-(phenylsulfonyl)-1,2,5-oxadiazole 2-oxide]  2.94

From article PMC6321601 (Molecules, 2018)
